Measured values from PMC12072338, “Allosteric Modulation of GCase Enhances Lysosomal Activity and Reduces ER Stress in GCase-Related Disorders” (International Journal of Molecular Sciences, 2025).
Results are given in words; binding and its absence hold for the method and conditions named. Binding seen in cells or lysates may run through a third protein. Some entries that bind do so weakly or less than the wild type. Sequences can lack the tags named with a protein.

The chains behind the UniProt entries cited, without tags or fusion partners. Residues count along the entry.
UniProt P11021, residues 19-654: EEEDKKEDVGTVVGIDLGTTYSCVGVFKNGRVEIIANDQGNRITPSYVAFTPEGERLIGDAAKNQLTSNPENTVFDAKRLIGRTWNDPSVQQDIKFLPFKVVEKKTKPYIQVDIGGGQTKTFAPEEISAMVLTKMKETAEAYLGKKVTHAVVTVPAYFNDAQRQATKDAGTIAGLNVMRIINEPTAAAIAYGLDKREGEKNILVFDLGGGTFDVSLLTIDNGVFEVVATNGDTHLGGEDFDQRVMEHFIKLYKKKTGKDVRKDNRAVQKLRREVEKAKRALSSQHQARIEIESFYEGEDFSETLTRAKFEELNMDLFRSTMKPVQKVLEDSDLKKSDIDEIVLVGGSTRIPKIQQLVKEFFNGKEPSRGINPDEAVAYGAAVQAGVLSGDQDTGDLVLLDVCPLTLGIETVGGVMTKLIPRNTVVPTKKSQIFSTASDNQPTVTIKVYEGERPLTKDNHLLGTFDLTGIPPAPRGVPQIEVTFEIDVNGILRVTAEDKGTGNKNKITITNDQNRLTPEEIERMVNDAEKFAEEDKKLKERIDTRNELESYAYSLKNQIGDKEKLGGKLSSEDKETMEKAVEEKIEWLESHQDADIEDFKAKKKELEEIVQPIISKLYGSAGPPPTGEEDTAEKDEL

Molecular target: T1, GCase_(Leu444Pro)-HA (human) (UniProt P04062)
T1 sequence: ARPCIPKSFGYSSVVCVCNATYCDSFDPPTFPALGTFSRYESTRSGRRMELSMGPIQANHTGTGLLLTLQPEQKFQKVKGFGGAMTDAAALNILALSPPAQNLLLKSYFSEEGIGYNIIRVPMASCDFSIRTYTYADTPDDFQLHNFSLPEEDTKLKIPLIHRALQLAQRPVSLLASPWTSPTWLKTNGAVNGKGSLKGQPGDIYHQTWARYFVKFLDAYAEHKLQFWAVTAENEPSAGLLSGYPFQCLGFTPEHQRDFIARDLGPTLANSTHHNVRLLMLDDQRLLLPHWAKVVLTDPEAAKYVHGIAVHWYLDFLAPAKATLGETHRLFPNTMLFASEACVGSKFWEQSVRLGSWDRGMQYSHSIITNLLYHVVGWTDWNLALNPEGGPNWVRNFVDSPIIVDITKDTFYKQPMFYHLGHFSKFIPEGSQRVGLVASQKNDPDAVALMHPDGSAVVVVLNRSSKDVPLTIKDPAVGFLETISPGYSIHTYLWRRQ
Experiment: co-IP; HEK293 cells transiently expressing GCase-HA variants; lysate incubated with bait antibody and protein A beads, 4 °C, 4 h; washed with 0.5% Triton X-100 in HBS pH 7.4; Western blot for CNX, BiP and GCase-HA

In the case of “binding immunoglobulin protein (BiP), endogenous in HEK293 cells (from UniProt P11021 19-654)”, the binding was “binds”.
